The list shows a part of the results. Further columns of the screen follow, without active or inactive calls. Most of these compounds were active or inconclusive in the main read-out, so they are no random draw. Words in brackets tell the shape of the fitted curve; partial curves, single points and poor fits give uncertain potencies.
Experiment: qHTS Assay for Lipid Storage Modulators in Drosophila S3 Cells;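 for cell number change: cells counted by Cell Tracker Red CMTPX staining in the red channel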
Conditions: BODIPY lipid droplet fluorescence, 18-24 h; for cell number change: measured here: cell count max response, cells fed with added oleic acid
How it was run: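 Drosophila S3 cells loaded with oleic acid (400 uM, as added) and compounds at several concentrations; lipid droplets imaged by 488-nm laser-scanning cytometry, 500–530 nm intensity and object ratio to cell channel. Percent activity normalized to 20 uM Triacsin C.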

[1] = measured here: lipid fluorescence (Fed channel) AC50, cells fed with added oleic acid
[2] = measured here: cell number channel AC50, cells fed with added oleic acid

SMILES	cell number change [%]	AC50 [1]	AC50 [2]
C/C(=N\Nc1ccccc1)c1cccc(N)c1	-27.7	29.1 µM [rising, single point]	
COC(=O)[C@H]1C[C@@H](c2ccccc2)[C@H](C)C1(C)C	-19.6	10.3 µM [falling, partial curve]	
CCOc1ccc(NS(=O)(=O)c2ccc(SC)cc2)cc1	-31.8	23.1 µM [falling, single point]	18.4 µM [falling, single point]
COc1ccc(C(=O)NCc2ccc(N3CCN(C)CC3)cc2)cc1	-16.9	29.1 µM [rising, single point]	
NS(=O)(=O)c1ccc(Sc2ccc3ccccc3c2)nc1	-4.05	0.58 µM [falling, single point]	
N#C/C(=C\c1ccco1)C(=O)Nc1ccc(S(N)(=O)=O)cc1	3.52		0.164 µM [falling, partial curve, poor fit]
COc1ccc(C(=O)Nc2ccc3c(c2)OCCO3)cc1S(=O)(=O)N1CCOCC1	9.03	0.013 µM [rising, full curve, poor fit]	
O=C(c1cc(C2CC2)nn1-c1ccccc1)N1CCN(c2ccc(O)cc2)CC1			1.64 µM [rising, partial curve]
CCCc1nn(C)c(C(=O)Nc2ccc(C(C)(C)C)cc2)c1Cl	-47	29.1 µM [falling, partial curve]	20.6 µM [falling, partial curve]
Cn1c(CN2CCCC2)nc2cc(NC(=O)c3ccco3)ccc21	4.12	6.51 µM [falling, single point]	0.651 µM [falling, single point]
COc1ccc(N2CCN(Cc3cc4c(cc3Br)OCCO4)CC2)cc1	-19	29.1 µM [falling, single point]	
Cc1c(Cl)cccc1Nc1ccccc1C(=O)O	-7.75		
C=CCOC(=O)C1=C[C@H](c2ccc(C(F)(F)F)cc2)[C@@H](CCCO)[C@H](OCC)O1	-30	29.1 µM [falling, single point]	29.1 µM [falling, single point]
O=C(NCCCn1ccnc1)C(=O)c1c[nH]c2ccccc12	56.5		0.00461 µM [rising, full curve, poor fit]
N#CC1=C(N)C(C#N)(C#N)C(c2cccnc2)C2CC(c3ccccc3)CC=C12 (configuration not stated)	-25.8	0.206 µM [falling, full curve]	
COc1ccc(CCCCCCOCc2ccccc2)cc1	7.24	2.06 µM [rising, partial curve, poor fit]	
COc1ccc(NC(=O)COc2ccccc2Cc2ccccc2)cc1S(N)(=O)=O	-10.8	6.51 µM [rising, single point]	
CCn1c(C)nc2cc(C(=O)OC(C(F)(F)C(F)F)C(F)(F)C(F)F)ccc21	-57.5	18.4 µM [falling, partial curve]	14.6 µM [falling, partial curve]
CCOC(=O)N1CCN(C(=O)CCSc2ccc(C)cc2)CC1	-9.06		0.731 µM [falling, single point]

Two successive compounds from above, quoted:
SMILES	cell number change [%]	AC50 [1]	AC50 [2]
COc1ccc(C(=O)NCc2ccc(N3CCN(C)CC3)cc2)cc1	-16.9	29.1 µM [rising, single point]	
NS(=O)(=O)c1ccc(Sc2ccc3ccccc3c2)nc1	-4.05	0.58 µM [falling, single point]	

Remaining list, next part.

SMILES	cell number change [%]	AC50 [1]	AC50 [2]
COc1ccc(Cl)cc1-c1nc(-c2ccncc2)no1	-18.2	1.46 µM [rising, partial curve]	
CN(CC(=O)Nc1ccc(F)cc1)C(=O)c1cccc(NS(=O)(=O)c2ccccc2)c1	38.3	32.6 µM [rising, single point]	29.1 µM [rising, single point]
O=C1NCCCC1C(=O)N1CCN(C(c2ccccc2)c2ccccc2)CC1 (configuration not stated)	-5.83	11.6 µM [falling, partial curve]	4.61 µM [falling, single point]
Cc1cc2cc3c(cc2nc1SCc1ccccn1)OCCO3	-2.2	4.11 µM [rising, single point]	
CC1CCCCC1NC(=O)COC(=O)COc1ccc(Cl)cc1 (configuration not stated)	-9.19		
COC(=O)c1ccccc1NC(=O)COc1ccc(S(=O)(=O)N2CCCC2)cc1C	10.5	2.06 µM [rising, partial curve, poor fit]	
O=C(NC1CCCCCCC1)c1ccccc1O	-8.72	0.231 µM [falling, full curve]	
CCCCCn1c(CN2CCN(C(=O)OCC)CC2)nc2c1c(=O)[nH]c(=O)n2C	28.9		1.84 µM [rising, full curve, poor fit]
CCCOc1ccc(N2C(=O)CC(N3CCC(C(=O)OCC)CC3)C2=O)cc1 (configuration not stated)	4.98		
CC1CC(=O)Nc2ccccc2N1S(=O)(=O)c1ccc(Br)cc1 (configuration not stated)	-30.2	1.3 µM [falling, full curve]	0.92 µM [falling, full curve]
O=C(NC12CC3CC(CC(C3)C1)C2)c1ccc([N+](=O)[O-])o1	-52.2	6.51 µM [falling, full curve]	8.2 µM [falling, partial curve]
CSc1oc(-c2ccco2)nc1S(=O)(=O)c1ccccc1		18.4 µM [rising, partial curve, poor fit]	
COCC(=O)Nc1nc2ccccc2s1	7.72	29.1 µM [rising, single point]	
CCC1CCCCN1S(=O)(=O)c1ccc(C(=O)Nc2nnc(-c3cccs3)o2)cc1 (configuration not stated)	-13	14.6 µM [falling, single point]	
CCCCn1c(N)c(N(CC)C(=O)c2cnc(C)cn2)c(=O)[nH]c1=O	2.13	2.06 µM [rising, full curve]	1.46 µM [falling, partial curve]
Cc1ccc(Cl)cc1N1CCN(C(=O)c2cn(C)c(=O)c3c2c2ccccc2n3C)CC1	9.33	0.517 µM [rising, full curve]	
CO/N=C/C(=N\Nc1cc(OC)cc(OC)c1)C(=O)c1ccccc1	9.78		
O=C(NCCC1=CCCCC1)C1CCCN(S(=O)(=O)c2cnc[nH]2)C1 (configuration not stated)	25		
